Counter-ions that a name gives are not always drawn. The list shows a part of the results. Repeats in this data set agree poorly, so a single value says little.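 Human embryonic kidney cells were transiently transfected with a plasmid bearing a Renilla luciferase gene under the HSV-TK promoter. This first-round screen tests roughly ten thousand compounds for ones that increase reporter output.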
What follows are compounds tested on HEK 293FT (assay: log relative Renilla luciferase luminescence (reporter expression vs reference, reference not stated) (log (base not stated)); higher = higher recombinant reporter expression). Settings: 10 µM; time after transfection 48 h.

Structure (SMILES)	log
NC(N)=NOCC[C@H](N)C(=O)O [canavanine]	0.0613
O=C([O-])Cc1ccccc1.[Na+] [sodium phenylacetate]	0.147
C[C@]12CC[C@H]3[C@@H](CC[C@]4(O)C[C@@H](O)CC[C@]34C=O)[C@@]1(O)CC[C@@H]2C1=CC(=O)OC1 [strophanthidin]	-1.42
O=c1[nH]c(=O)n(Cl)c(=O)n1Cl [troclosene potassium]	0.047
NC(=O)CN1CCCC1=O [piracetam]	0.157
CC(=O)OC1CCC23C(=O)OC45CCC(C6=CC(=O)OC6)C4(C)CCC2C5CCC3(O)C1 (centres undefined) [strophanthidinic acid lactone acetate]	-0.987
O=P1(NCCCl)OCCCN1CCCl (centres undefined) [ifosfamide]	-0.0587
CC(C)c1c(CN(C)C(C)Cc2ccccc2)n(C)n(-c2ccccc2)c1=O (centres undefined) [famprofazone]	0.0481
Oc1ccc(Cl)cc1 [parachlorophenol]	0.0842
C=C(C)[C@@H]1[C@H]2OC(=O)[C@@H]1[C@]1(O)C[C@H]3O[C@]34C(=O)O[C@H]2[C@]14C [picrotoxinin]	0.0115
COc1cc([C@@H]2c3cc4c(c(O)c3C[C@H]3COC(=O)[C@@H]32)OCO4)cc(OC)c1OC [beta-peltatin]	0.0433
NC(=O)C[S+]([O-])C(c1ccccc1)c1ccccc1 (centres undefined) [modafinil]	0.0773
C[C@@H](CO)NC(=O)[C@@H]1C=C2c3cccc4[nH]cc(c34)C[C@H]2N(C)C1 [ergonovine maleate]	-0.0435
Clc1ccc(C(OCCN2CCCCC2)c2ccccc2)cc1 (centres undefined) [cloperastine hydrochloride]	-0.0276
C[C@]12CC[C@H](O)C[C@H]1CC[C@@H]1[C@@H]2C[C@@H](O)[C@]2(C)[C@@H](C3=CC(=O)OC3)CC[C@]12O [digoxigenin]	-1.37
NCCc1c[nH]c2ccccc12 [tryptamine]	0.0043
Cc1cccc(C)c1NC1=NCCCS1 [xylazine]	-0.0325
C[C@]12CCC(=O)C=C1CCc1ccc(O)cc12 [12-hydroxy-4,4-bisnor-4,8,11,13-podocarpatetraen-3-one]	-0.00986
COc1c2c(cc3c1OCO3)CC[N+](C)=C2 [cotarnine chloride]	0.0391
CC(=O)OCC1=C(C(=O)O)N2C(=O)[C@@H](NC(=O)CCC[C@@H](N)C(=O)O)[C@H]2SC1 [cephalosporin c sodium]	0.0372
CCNC1(c2cccs2)CCCCC1=O (centres undefined) [tiletamine hydrochloride]	-0.00902
Cc1ccc(O)cc1.Cc1cccc(O)c1.Cc1ccccc1O [cresol]	0.00801
CC[C@H]1[C@@H]2C[C@H]3[C@@H]4N(C)c5ccccc5[C@]45C[C@@H]([C@@H]2[C@H]5O)N3[C@@H]1O [ajmaline]	0.0223
CS(=N)(=O)CC[C@H](N)C(=O)O (some centres undefined) [methionine sulfoximine (l)]	0.0636
C[C@@H]1CC[C@H]2[C@@H](C)C(=O)O[C@@H]3O[C@@]4(C)CC[C@@H]1[C@]32OO4 [artemisinin]	0.0794

Shown comma-delimited: part of the list above.
Structure (SMILES),log
C[C@]12CC[C@H]3[C@@H](CC[C@]4(O)C[C@@H](O)CC[C@]34C=O)[C@@]1(O)CC[C@@H]2C1=CC(=O)OC1 [strophanthidin],-1.42
O=c1[nH]c(=O)n(Cl)c(=O)n1Cl [troclosene potassium],0.047

The list goes on.

Structure (SMILES)	log
CNC(C)C(O)c1ccccc1 (centres undefined) [racephedrine hydrochloride]	0.103
CC[C@H]1CN2CCc3cc(OC)c(OC)cc3[C@@H]2C[C@@H]1C[C@H]1NCCc2cc(OC)c(OC)cc21 [emetine dihydrochloride]	-1.42
COc1cc([C@@H]2c3cc4c(cc3[C@H](O)[C@H]3COC(=O)[C@H]23)OCO4)cc(OC)c1OC [podofilox]	-0.0071
O=[N+]([O-])c1ccc([As](=O)(O)O)cc1 [nitarsone]	0.0837
CNC(C)[C@H](O)c1ccccc1 (some centres undefined) [ephedrine (1r,2s) hydrochloride]	0.129
NCCc1c[nH]c2ccc(O)cc12 [serotonin hydrochloride]	0.193
CCN(C(C)=O)c1cccc(-c2ccnc3c(C#N)cnn23)c1 [zaleplon]	-0.081
COc1ccc(C[C@H]2NC[C@H](O)[C@H]2OC(C)=O)cc1 [anisomycin]	-1.44
COc1ccc2c(c1)[nH]c1c(C)nccc12 [harmine]	-0.0323
CC1(C)C(C=C(Cl)Cl)C1C(=O)OCc1cccc(Oc2ccccc2)c1 (centres undefined) [permethrin]	0.111
C[N+]12CCC(CC1)C(OC(=O)C(O)(c1ccccc1)c1ccccc1)C2 (centres undefined) [clidinium bromide]	-0.0731
O=C(O)CCC1NCC2CC1CN1CCCCC21 (centres undefined) [lupanyl acid hydrochloride]	0.204
OC[C@@H](O)[C@H]1O[C@@H]2O[C@H](C(Cl)(Cl)Cl)O[C@@H]2[C@H]1O [chloralose]	0.0849
COc1cc2c(cc1OC)[C@@H]1C(=O)c3ccc4oc(C(C)C)cc4c3O[C@@H]1CO2 [isorotenone]	-1.98
CC(=O)[C@H]1CC[C@H]2[C@@H]3CC[C@@H]4C[C@H](O)CC[C@]4(C)[C@H]3CC[C@]12C [eltanolone]	-0.054
CC(CC(C(N)=O)(c1ccccc1)c1ccccc1)N(C)C (centres undefined) [aminopentamide sulfate]	-0.0666
C[C@]12CC[C@H]3[C@@H](CCC4=CC(=O)CC[C@@]43C)[C@@H]1CC[C@H]2O [epitestosterone]	0.0326
O=C1CCC[C@@H]2[C@H]3C[C@@H](CN12)[C@@H]1CCCCN1C3.[O-][Cl+3]([O-])([O-])O [lupanine perchlorate]	0.154
COC[C@]12CN(C=O)[C@@H]3[C@@H]4[C@H](OC)[C@H]1[C@@]3([C@@H](OC)C[C@H]2O)[C@@H]1C[C@@]2(O)[C@H](OC(=O)c3ccccc3)[C@@H]1[C@]4(OC(C)=O)[C@@H](O)[C@@H]2OC [oxonitine]	0.0406
CC(C)=CCCC1(C)C=Cc2c(O)c3c(c(CC=C(C)C)c2O1)OC12C(=CC4CC1C(C)(C)OC2(C/C=C(/C)C(=O)O)C4O)C3=O (centres undefined) [dihydrogambogic acid]	-1.55
C[C@H]1C(=O)O[C@@H]2CCN3CC=C(COC(=O)[C@](C)(O)[C@]1(C)O)[C@H]23 [monocrotaline]	0.025
COC(=O)C(c1ccccc1)C1CCCCN1 (centres undefined) [methylphenidate hydrochloride]	0.0583
CC(=O)OCC1=C(C(=O)O)N2C(=O)[C@@H](N)[C@H]2SC1 [7-aminocephalosporanic acid]	0.117
CO[C@]12C[C@@H](COC(=O)c3cncc(Br)c3)CN(C)[C@@H]1Cc1cn(C)c3cccc2c13 [nicergoline]	0.102
C/C=C(/C)C(=O)O[C@H]1CC[C@@]2(C)[C@@H]3CC[C@H]4[C@]5(O)C[C@H](O)[C@@]6(O)[C@@H](CN7C[C@@H](C)CC[C@H]7[C@@]6(C)O)[C@]5(O)C[C@]42O[C@]13O [veratrine sulfate]	-0.0721

Structure (SMILES)	log
O=C1NC(=O)C(=O)C(=O)N1 [alloxan]	0.0176
CC(C)C[C@H](CN)CC(=O)O [pregabalin]	0.118
CN(C)C(=S)SSC(=S)N(C)C [thiram]	-2.02
CCC(C)(C)O [amylene hydrate]	0.0884
CC(C)(C)NCC(O)c1ccccc1Cl (centres undefined) [tulobuterol hydrochloride]	0.00499
COc1cc2c(cc1-c1cc3cc4ccoc4cc3oc1=O)OCO2 [pachyrrhizin]	-0.128
CC1=C2[C@H]3OC(=O)[C@@H](C)[C@@H]3CC[C@@]2(C)C=CC1=O [santonin]	0.0192
CCC(N)C(O)c1ccc(O)c(O)c1 (centres undefined) [ethylnorepinephrine hydrochloride]	0.00789
O=C1C=C2C(=CCOC2O)O1 (centres undefined) [patulin]	-1.51
COc1ccc(CCN2CCC(Nc3nc4ccccc4n3Cc3ccc(F)cc3)CC2)cc1 [astemizole]	0.2
CC(=O)O[C@H]1C[C@H](O[C@H]2[C@@H](O)C[C@H](O[C@H]3[C@@H](O)C[C@H](O[C@H]4CC[C@@]5(C)[C@H](CC[C@@H]6[C@@H]5C[C@@H](O)[C@]5(C)[C@@H](C7=CC(=O)OC7)CC[C@]65O)C4)O[C@@H]3C)O[C@@H]2C)O[C@H](C)[C@H]1O[C@@H]1O[C@H](CO)[C@@H](O)[C@H](O)[C@H]1O [lanatoside c]	-1.61
Oc1cc(Cl)ccc1Oc1ccc(Cl)cc1Cl [triclosan]	-0.539
CC1(C)C(C=C(Cl)Cl)C1C(=O)OC(C#N)c1cccc(Oc2ccccc2)c1 (centres undefined) [cypermethrin]	-0.00227
COc1ccc(Cc2nccc3cc(OC)c(OC)cc23)cc1OC [papaverine hydrochloride]	-0.546
CCC1(CC)C(=O)C=CNC1=O [pyrithyldione]	0.0521
COc1cc2c(c(OC)c1OC)-c1ccc(=O)c(O)cc1[C@@H](NC(C)=O)CC2 [colchiceine]	-0.00674
C[C@]12CC[C@H]3[C@@H](CC[C@@]45O[C@@H]4C(O)=C(C#N)C[C@]35C)[C@@H]1CC[C@@H]2O [trilostane]	0.103
O=C(N/N=C/c1ccc([N+](=O)[O-])o1)c1cc([N+](=O)[O-])cc([N+](=O)[O-])c1O [nifursol]	-0.173
C=C(C)[C@H]1Cc2c(ccc3c2O[C@@H]2COc4cc(OC)c(OC)cc4[C@@H]2C3=O)O1 [rotenone]	-0.932
COC(=O)C1=CCCN(C)C1 [arecoline hydrobromide]	0.121
COc1cc2c(cc1OC)[C@@]13CCN4CC5=CCO[C@H]6CC(=O)N2[C@H]1[C@H]6[C@H]5C[C@H]43 [brucine]	-0.11
CC(C)(C)NCC(O)c1cc(Cl)c(N)c(Cl)c1 (centres undefined) [clenbuterol hydrochloride]	-0.119
COc1cc2c(cc1OC)[C@H](C)NCC2 [salsolidine]	0.212
O=C(NC(=O)c1c(F)cccc1F)Nc1cc(Cl)c(OC(F)(F)C(F)C(F)(F)F)cc1Cl (centres undefined) [lufenuron]	-0.119

3 records picked at random from the list so far:
Structure (SMILES)	log
O=[N+]([O-])c1ccc([As](=O)(O)O)cc1 [nitarsone]	0.0837
CCC(N)C(O)c1ccc(O)c(O)c1 (centres undefined) [ethylnorepinephrine hydrochloride]	0.00789
CC(C)c1c(CN(C)C(C)Cc2ccccc2)n(C)n(-c2ccccc2)c1=O (centres undefined) [famprofazone]	0.0481

— the supplement of paper PMC7024190
